Values quoted from earlier work, collected in patent US20090082314A1, “Targeting Prodrugs for the Treatment of Gastrointestinal Diseases” (The Provost Fellows and Scholars of the College of the, priority 2007, published 2009).
At least one compound was matched to its structure with a doubt left.

Settings: rat intestinal perfusate, from the rate constant; cited from earlier work

Structure (SMILES): C[C@]12CCC(=O)C=C1CC[C@@H]1[C@@H]2[C@@H](O)C[C@@]2(C)[C@H]1CC[C@]2(O)C(=O)COC(=O)CCC(=O)O [hydrocortisone-21-succinate]
- half-life of hydrolysis: 12 h
